Source: paper PMC7554696 (International Journal of Molecular Sciences, 2020)

Test: general procedure: peptide synthesis; isobutyl chloroformate / TEA (mixed anhydride)

Substance	conjugation yield (conjugation step) [%]	difficulty met (late stage modification step)	step yield (late stage modification step) [%]
Fmoc–Leu–Ala–Gly–Gly–DOX	75	–	–
PEPTIDE1{L.A.G.G.[DOX]}$$$$V2.0	–	we obtained the desired product in a very poor yield	61

Strings that start with PEPTIDE1 are HELM notation: dots part the residues, brackets hold end groups and non-standard residues.
